PubChem BioAssay AID504764 – Drosophila RNAi Screening Center – 2011
The deposit covers about 22,000 reagents; this is an unselected part of those that have a named target and a result. Of all reagents, 403 (1.9%) got an active call. 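Unnormalised raw counts per well; ratio z-scores behind the hit calls and whether each hit raises or lowers signal are not deposited.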 No sequences are given here. Not given: the amount of reagent.

Purpose: 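Knock-downs that raise or lower a Notch target reporter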 (primary screen)
Cell system: Drosophila Kc167 cells
Reagents: long dsRNA against Drosophila genes
Time to read-out: about 5 days (4 days dsRNA, then 24 h after transfection)
Challenge: transfection of constitutively active membrane-tethered Notch lacking the extracellular domain, read 24 h later
Measured: 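Light from a Notch-responsive E(spl)m3 luciferase reporter under active Notch, with control-promoter and no-Notch reporter wells to normalise; raw counts from paired wells a and b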
Direction: induced reporter light, run 1, well a and induced reporter light, run 1, well b: higher = more light from the Notch target reporter with active Notch; control promoter light, run 1, well a and control promoter light, run 1, well b: higher = more light from the viral control promoter (cell number, transfection, viability); uninduced reporter light, run 1, well a: higher = more light from the Notch target reporter without active Notch
Rule for the call: 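Hit if the duplicate-averaged log2 ratio of induced to control-promoter light gives a plate-wise z beyond ±2, or induced to uninduced beyond ±1.8; weak-control or discordant-duplicate wells dropped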
Meaning of the calls: active = modifier hit (raised or lowered Notch signal); inactive = not a hit

{"target":"pHCl-2 (pH-sensitive chloride channel 2)","DRSC id":"DRSC14306","induced reporter light, run 1, well a":1.27e5,"induced reporter light, run 1, well b":1.31e5,"control promoter light, run 1, well a":2.00e5,"control promoter light, run 1, well b":2.02e5,"uninduced reporter light, run 1, well a":10165,"Call":"inactive"}
{"target":"CG30291","DRSC id":"DRSC03842","induced reporter light, run 1, well a":71735,"induced reporter light, run 1, well b":90060,"control promoter light, run 1, well a":87280,"control promoter light, run 1, well b":79920,"uninduced reporter light, run 1, well a":8250,"Call":"inactive"}
{"target":"Jwa","DRSC id":"DRSC02048","induced reporter light, run 1, well a":2.25e5,"induced reporter light, run 1, well b":2.08e5,"control promoter light, run 1, well a":2.47e5,"control promoter light, run 1, well b":1.93e5,"uninduced reporter light, run 1, well a":16725,"Call":"inactive"}
{"target":"CG14380","DRSC id":"DRSC14840","induced reporter light, run 1, well a":2.14e5,"induced reporter light, run 1, well b":2.26e5,"control promoter light, run 1, well a":1.98e5,"control promoter light, run 1, well b":2.01e5,"uninduced reporter light, run 1, well a":14770,"Call":"inactive"}
{"target":"moody","DRSC id":"DRSC18515","induced reporter light, run 1, well a":89035,"induced reporter light, run 1, well b":1.13e5,"control promoter light, run 1, well a":1.68e5,"control promoter light, run 1, well b":1.76e5,"uninduced reporter light, run 1, well a":8740,"Call":"inactive"}
{"target":"Pcif1 (Phosphorylated CTD-interacting factor 1)","DRSC id":"DRSC11655","induced reporter light, run 1, well a":1.19e5,"induced reporter light, run 1, well b":1.34e5,"control promoter light, run 1, well a":80305,"control promoter light, run 1, well b":1.09e5,"uninduced reporter light, run 1, well a":9250,"Call":"inactive"}
{"target":"CG31798","DRSC id":"DRSC01702","induced reporter light, run 1, well a":85825,"induced reporter light, run 1, well b":65455,"control promoter light, run 1, well a":62970,"control promoter light, run 1, well b":64000,"uninduced reporter light, run 1, well a":6975,"Call":"inactive"}
{"target":"Lipt1 (Lipoyltransferase 1)","DRSC id":"DRSC05600","induced reporter light, run 1, well a":1.33e5,"induced reporter light, run 1, well b":1.21e5,"control promoter light, run 1, well a":1.85e5,"control promoter light, run 1, well b":1.69e5,"uninduced reporter light, run 1, well a":10265,"Call":"inactive"}
{"target":"Lipt1 (Lipoyltransferase 1)","DRSC id":"DRSC07183","induced reporter light, run 1, well a":51830,"induced reporter light, run 1, well b":54915,"control promoter light, run 1, well a":73125,"control promoter light, run 1, well b":74700,"uninduced reporter light, run 1, well a":4180,"Call":"inactive"}
{"target":"CG14963","DRSC id":"DRSC08422","induced reporter light, run 1, well a":1.17e5,"induced reporter light, run 1, well b":1.32e5,"control promoter light, run 1, well a":1.92e5,"control promoter light, run 1, well b":2.42e5,"uninduced reporter light, run 1, well a":7780,"Call":"inactive"}
{"target":"Gr22b (Gustatory receptor 22b)","DRSC id":"DRSC20911","induced reporter light, run 1, well a":2.37e5,"induced reporter light, run 1, well b":1.71e5,"control promoter light, run 1, well a":2.95e5,"control promoter light, run 1, well b":2.96e5,"uninduced reporter light, run 1, well a":18555,"Call":"inactive"}
{"target":"CG32544","DRSC id":"DRSC20033","induced reporter light, run 1, well a":81920,"induced reporter light, run 1, well b":1.04e5,"control promoter light, run 1, well a":94710,"control promoter light, run 1, well b":1.08e5,"uninduced reporter light, run 1, well a":9100,"Call":"inactive"}
{"target":"CG12581","DRSC id":"DRSC12206","induced reporter light, run 1, well a":1.06e5,"induced reporter light, run 1, well b":1.17e5,"control promoter light, run 1, well a":66495,"control promoter light, run 1, well b":77455,"uninduced reporter light, run 1, well a":7570,"Call":"inactive"}
{"target":"CG12581","DRSC id":"DRSC12207","induced reporter light, run 1, well a":1.41e5,"induced reporter light, run 1, well b":1.33e5,"control promoter light, run 1, well a":1.58e5,"control promoter light, run 1, well b":1.19e5,"uninduced reporter light, run 1, well a":8155,"Call":"inactive"}
{"target":"CG32027 (retired record)","DRSC id":"DRSC09571","induced reporter light, run 1, well a":1.99e5,"induced reporter light, run 1, well b":1.96e5,"control promoter light, run 1, well a":2.29e5,"control promoter light, run 1, well b":2.63e5,"uninduced reporter light, run 1, well a":17175,"Call":"inactive"}
{"target":"Gr8a (Gustatory receptor 8a)","DRSC id":"DRSC18043","induced reporter light, run 1, well a":1.17e5,"induced reporter light, run 1, well b":1.28e5,"control promoter light, run 1, well a":2.36e5,"control promoter light, run 1, well b":2.36e5,"uninduced reporter light, run 1, well a":8810,"Call":"inactive"}
{"target":"CG13716","DRSC id":"DRSC08325","induced reporter light, run 1, well a":2.22e5,"induced reporter light, run 1, well b":1.47e5,"control promoter light, run 1, well a":1.33e5,"control promoter light, run 1, well b":1.49e5,"uninduced reporter light, run 1, well a":7750,"Call":"inactive"}
{"target":"CG13716","DRSC id":"DRSC22815","Call":"active"}
{"target":"CG15059","DRSC id":"DRSC19633","induced reporter light, run 1, well a":63265,"induced reporter light, run 1, well b":56570,"control promoter light, run 1, well a":75655,"control promoter light, run 1, well b":55045,"uninduced reporter light, run 1, well a":9728,"Call":"inactive"}
{"target":"CG42331","DRSC id":"DRSC14633","induced reporter light, run 1, well a":1.69e5,"induced reporter light, run 1, well b":1.55e5,"control promoter light, run 1, well a":1.82e5,"control promoter light, run 1, well b":1.64e5,"uninduced reporter light, run 1, well a":14428,"Call":"inactive"}
{"target":"CG42331","DRSC id":"DRSC16126","induced reporter light, run 1, well a":1.55e5,"induced reporter light, run 1, well b":1.48e5,"control promoter light, run 1, well a":1.25e5,"control promoter light, run 1, well b":1.65e5,"uninduced reporter light, run 1, well a":9915,"Call":"inactive"}
{"target":"rha","DRSC id":"DRSC17044","induced reporter light, run 1, well a":2.52e5,"induced reporter light, run 1, well b":1.82e5,"control promoter light, run 1, well a":2.71e5,"control promoter light, run 1, well b":2.73e5,"uninduced reporter light, run 1, well a":14775,"Call":"inactive"}
{"target":"Porin2","DRSC id":"DRSC02584","induced reporter light, run 1, well a":1.32e5,"induced reporter light, run 1, well b":1.82e5,"control promoter light, run 1, well a":1.04e5,"control promoter light, run 1, well b":1.26e5,"uninduced reporter light, run 1, well a":21265,"Call":"inactive"}
{"target":"tut (tumorous testis)","DRSC id":"DRSC08909","induced reporter light, run 1, well a":2.02e5,"induced reporter light, run 1, well b":1.92e5,"control promoter light, run 1, well a":3.05e5,"control promoter light, run 1, well b":2.39e5,"uninduced reporter light, run 1, well a":13160,"Call":"inactive"}

Entries listed so far whose gene name begins with G or g:
{"target":"Gr22b (Gustatory receptor 22b)","DRSC id":"DRSC20911","induced reporter light, run 1, well a":2.37e5,"induced reporter light, run 1, well b":1.71e5,"control promoter light, run 1, well a":2.95e5,"control promoter light, run 1, well b":2.96e5,"uninduced reporter light, run 1, well a":18555,"Call":"inactive"}
{"target":"Gr8a (Gustatory receptor 8a)","DRSC id":"DRSC18043","induced reporter light, run 1, well a":1.17e5,"induced reporter light, run 1, well b":1.28e5,"control promoter light, run 1, well a":2.36e5,"control promoter light, run 1, well b":2.36e5,"uninduced reporter light, run 1, well a":8810,"Call":"inactive"}
